Earlier results on one compound are cited in patent US7146278B2, “Method of selecting marker molecules for prediction of molecular activity” (Accelrys Software Inc., priority 2001, dated 2006).

In this data set the test system is serum proteins. The settings on record: cited from earlier work.

Regarding `CN1C(=O)CN=C(c2ccccc2)c2cc(Cl)ccc21` [DIAZEPAM], the “% Protein Bound” value (example training set of ten molecules) is on record as 98.7%. Moreover, the “% PB” value (marker molecules, training set from Goodman & Gilman 9th ed.) is given as 98.7%.
